Measurements: the supplement of paper PMC6411743
± gives the standard deviation of the averaged measurements. The entries are a selection whose mix differs from that of the whole data set.

By UniProt entry, the sequences of proteins in these tests, tags left out. Where a name states a change or a piece, a line headed by the entry shows the natural chain unless it says otherwise.
UniProt P63092, whole entry, looked up: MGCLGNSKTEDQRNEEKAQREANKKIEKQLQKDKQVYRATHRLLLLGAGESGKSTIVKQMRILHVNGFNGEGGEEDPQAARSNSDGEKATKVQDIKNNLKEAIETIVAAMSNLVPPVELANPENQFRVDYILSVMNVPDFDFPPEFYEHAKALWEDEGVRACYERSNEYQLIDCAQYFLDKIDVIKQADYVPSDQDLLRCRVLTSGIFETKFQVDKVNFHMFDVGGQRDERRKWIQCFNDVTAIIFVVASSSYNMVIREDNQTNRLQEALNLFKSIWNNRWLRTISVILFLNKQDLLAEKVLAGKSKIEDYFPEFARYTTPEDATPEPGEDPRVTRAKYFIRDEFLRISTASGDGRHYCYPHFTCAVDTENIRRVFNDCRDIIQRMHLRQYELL
UniProt P62310: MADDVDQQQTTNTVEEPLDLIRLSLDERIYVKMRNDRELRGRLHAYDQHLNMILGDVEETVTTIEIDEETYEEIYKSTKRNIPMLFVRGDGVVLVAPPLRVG
UniProt Q05397, whole entry, looked up: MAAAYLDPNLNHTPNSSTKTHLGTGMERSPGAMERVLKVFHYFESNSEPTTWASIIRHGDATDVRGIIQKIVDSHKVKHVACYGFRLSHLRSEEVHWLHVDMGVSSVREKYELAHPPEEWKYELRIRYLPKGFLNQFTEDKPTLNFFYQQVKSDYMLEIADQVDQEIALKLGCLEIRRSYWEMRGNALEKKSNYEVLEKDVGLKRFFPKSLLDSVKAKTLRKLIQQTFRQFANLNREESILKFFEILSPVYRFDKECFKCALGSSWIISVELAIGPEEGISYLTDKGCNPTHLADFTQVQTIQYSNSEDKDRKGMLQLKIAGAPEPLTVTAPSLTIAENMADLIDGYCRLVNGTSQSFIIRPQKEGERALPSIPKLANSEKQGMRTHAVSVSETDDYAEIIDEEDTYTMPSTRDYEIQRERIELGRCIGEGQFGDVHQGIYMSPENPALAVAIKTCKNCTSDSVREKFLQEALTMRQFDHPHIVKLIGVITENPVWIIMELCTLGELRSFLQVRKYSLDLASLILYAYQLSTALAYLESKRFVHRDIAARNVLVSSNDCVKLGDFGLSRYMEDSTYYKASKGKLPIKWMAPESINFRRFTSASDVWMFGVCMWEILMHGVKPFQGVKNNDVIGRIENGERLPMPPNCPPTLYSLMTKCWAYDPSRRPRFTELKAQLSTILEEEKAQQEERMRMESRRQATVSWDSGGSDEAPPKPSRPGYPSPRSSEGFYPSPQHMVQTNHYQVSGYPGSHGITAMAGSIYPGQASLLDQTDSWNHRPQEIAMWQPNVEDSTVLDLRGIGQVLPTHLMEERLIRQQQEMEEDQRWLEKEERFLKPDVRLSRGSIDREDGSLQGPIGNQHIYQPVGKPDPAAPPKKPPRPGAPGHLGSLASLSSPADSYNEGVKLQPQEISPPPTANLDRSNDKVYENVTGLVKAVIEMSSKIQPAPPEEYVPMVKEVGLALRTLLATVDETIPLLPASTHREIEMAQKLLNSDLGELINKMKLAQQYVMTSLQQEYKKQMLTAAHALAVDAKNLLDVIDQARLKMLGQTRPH
UniProt P62314, whole entry: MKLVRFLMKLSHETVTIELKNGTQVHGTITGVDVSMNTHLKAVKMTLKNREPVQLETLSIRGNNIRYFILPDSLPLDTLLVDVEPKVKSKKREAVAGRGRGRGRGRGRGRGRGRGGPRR
UniProt Q04760: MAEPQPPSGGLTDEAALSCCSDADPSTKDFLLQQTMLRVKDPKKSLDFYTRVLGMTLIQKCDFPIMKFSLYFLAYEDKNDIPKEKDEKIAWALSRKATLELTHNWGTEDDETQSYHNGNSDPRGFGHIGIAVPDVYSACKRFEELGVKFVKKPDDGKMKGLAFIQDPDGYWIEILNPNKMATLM
UniProt Q01780: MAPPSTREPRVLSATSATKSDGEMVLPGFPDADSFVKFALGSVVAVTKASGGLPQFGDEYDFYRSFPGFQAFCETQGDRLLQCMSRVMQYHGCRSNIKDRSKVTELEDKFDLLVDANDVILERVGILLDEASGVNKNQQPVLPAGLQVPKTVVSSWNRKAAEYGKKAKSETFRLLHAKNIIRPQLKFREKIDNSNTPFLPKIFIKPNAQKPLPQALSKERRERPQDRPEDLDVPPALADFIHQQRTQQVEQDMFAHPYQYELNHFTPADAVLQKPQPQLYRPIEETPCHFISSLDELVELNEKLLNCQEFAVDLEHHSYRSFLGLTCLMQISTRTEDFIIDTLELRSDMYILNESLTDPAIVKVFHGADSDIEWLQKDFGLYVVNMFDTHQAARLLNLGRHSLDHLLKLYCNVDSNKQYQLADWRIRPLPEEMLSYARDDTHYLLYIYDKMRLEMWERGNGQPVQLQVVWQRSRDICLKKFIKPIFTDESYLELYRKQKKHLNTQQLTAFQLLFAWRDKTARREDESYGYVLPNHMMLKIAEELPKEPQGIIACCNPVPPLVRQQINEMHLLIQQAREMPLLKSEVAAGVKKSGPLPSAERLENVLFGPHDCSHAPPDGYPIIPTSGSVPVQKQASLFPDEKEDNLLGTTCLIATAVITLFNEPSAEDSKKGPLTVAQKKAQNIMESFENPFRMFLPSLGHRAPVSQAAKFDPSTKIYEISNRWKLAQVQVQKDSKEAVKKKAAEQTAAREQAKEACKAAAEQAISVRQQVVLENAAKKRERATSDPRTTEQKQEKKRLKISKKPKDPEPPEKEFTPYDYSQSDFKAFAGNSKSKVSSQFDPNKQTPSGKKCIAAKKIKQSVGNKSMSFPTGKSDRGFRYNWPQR
UniProt P56282: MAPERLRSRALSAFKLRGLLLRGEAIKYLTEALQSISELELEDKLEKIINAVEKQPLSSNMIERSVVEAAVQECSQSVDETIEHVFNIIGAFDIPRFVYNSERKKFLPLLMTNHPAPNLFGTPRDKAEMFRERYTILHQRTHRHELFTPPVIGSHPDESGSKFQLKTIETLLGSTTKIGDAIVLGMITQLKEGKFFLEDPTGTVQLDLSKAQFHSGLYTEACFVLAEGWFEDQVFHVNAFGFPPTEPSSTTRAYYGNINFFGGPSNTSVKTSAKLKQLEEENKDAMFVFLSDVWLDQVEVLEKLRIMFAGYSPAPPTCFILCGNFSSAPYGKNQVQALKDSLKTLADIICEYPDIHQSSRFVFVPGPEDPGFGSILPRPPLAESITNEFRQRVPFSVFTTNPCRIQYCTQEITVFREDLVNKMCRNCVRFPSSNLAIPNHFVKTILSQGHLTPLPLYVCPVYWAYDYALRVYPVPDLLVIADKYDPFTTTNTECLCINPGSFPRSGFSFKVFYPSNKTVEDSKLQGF
UniProt P61599, whole entry: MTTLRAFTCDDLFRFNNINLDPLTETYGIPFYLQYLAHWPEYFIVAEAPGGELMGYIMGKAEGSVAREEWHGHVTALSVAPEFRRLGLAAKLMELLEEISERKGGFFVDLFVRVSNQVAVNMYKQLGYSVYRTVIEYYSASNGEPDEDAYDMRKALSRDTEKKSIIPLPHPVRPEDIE
UniProt P56192: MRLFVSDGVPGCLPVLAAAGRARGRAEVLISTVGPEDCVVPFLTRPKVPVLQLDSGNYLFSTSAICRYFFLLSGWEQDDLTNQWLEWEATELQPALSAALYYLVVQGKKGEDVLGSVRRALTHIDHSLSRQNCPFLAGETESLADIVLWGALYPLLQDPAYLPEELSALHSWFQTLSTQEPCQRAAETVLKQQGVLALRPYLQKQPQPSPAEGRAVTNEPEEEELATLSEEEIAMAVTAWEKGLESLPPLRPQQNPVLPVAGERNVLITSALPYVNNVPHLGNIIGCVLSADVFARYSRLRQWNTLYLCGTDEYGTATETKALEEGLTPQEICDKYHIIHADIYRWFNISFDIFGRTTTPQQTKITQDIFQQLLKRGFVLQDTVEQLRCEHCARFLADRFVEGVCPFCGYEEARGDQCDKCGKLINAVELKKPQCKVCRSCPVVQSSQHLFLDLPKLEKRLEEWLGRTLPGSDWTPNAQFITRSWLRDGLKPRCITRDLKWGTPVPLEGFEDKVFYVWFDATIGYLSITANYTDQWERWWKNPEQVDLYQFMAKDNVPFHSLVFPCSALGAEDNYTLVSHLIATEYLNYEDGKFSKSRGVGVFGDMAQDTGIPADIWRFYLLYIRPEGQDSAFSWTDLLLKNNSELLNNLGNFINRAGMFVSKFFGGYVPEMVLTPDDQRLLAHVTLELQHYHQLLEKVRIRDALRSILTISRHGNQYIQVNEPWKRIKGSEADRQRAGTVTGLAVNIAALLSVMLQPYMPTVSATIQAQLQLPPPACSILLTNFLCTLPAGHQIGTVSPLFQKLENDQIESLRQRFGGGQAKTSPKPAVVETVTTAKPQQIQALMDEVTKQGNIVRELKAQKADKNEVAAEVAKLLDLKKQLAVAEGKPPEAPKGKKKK
UniProt P62995: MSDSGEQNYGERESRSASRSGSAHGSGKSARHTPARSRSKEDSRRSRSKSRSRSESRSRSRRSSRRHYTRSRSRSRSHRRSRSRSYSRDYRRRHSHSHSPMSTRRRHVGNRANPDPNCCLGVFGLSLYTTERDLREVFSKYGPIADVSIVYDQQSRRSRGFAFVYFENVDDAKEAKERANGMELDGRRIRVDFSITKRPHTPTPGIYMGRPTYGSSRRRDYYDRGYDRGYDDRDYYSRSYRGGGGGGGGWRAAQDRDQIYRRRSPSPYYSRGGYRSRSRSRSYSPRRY
UniProt Q01518, whole entry: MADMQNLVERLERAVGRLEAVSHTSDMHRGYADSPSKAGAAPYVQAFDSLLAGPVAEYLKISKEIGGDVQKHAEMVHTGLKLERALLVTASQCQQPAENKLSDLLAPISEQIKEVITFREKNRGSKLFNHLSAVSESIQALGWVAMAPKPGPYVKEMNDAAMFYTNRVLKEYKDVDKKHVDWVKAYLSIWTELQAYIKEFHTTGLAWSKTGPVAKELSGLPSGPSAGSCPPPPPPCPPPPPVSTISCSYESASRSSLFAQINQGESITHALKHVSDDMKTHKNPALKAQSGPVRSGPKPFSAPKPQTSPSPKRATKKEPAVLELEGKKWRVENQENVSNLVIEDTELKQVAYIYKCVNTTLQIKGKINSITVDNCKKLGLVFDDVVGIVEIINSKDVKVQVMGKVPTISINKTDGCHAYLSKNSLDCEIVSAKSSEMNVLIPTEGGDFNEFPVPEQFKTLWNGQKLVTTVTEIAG
UniProt P78406: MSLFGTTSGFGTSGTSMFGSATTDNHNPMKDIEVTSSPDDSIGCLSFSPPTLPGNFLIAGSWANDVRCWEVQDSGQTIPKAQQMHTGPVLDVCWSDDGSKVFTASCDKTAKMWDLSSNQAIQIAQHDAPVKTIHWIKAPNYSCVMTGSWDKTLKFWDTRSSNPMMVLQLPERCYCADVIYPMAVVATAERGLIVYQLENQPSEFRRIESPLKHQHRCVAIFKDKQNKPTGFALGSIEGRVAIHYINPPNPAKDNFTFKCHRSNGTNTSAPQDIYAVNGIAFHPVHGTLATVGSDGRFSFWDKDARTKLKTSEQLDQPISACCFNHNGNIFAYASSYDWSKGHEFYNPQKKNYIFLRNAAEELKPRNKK
UniProt P61006: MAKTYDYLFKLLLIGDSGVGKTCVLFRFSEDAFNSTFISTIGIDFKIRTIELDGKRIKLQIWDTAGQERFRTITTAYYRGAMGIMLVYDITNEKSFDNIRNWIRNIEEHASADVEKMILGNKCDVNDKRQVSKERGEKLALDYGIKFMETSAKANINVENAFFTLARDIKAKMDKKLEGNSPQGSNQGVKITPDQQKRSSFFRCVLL
UniProt P57081: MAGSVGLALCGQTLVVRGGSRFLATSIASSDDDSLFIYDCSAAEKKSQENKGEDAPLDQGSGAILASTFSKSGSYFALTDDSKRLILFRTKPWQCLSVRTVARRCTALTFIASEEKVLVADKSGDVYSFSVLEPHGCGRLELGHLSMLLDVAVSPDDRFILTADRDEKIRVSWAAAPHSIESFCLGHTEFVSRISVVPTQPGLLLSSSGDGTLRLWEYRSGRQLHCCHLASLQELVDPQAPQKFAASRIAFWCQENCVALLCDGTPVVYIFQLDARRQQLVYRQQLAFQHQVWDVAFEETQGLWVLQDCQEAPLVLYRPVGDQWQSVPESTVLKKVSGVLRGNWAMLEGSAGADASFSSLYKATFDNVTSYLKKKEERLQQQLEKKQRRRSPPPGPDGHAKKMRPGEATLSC
UniProt Q00266: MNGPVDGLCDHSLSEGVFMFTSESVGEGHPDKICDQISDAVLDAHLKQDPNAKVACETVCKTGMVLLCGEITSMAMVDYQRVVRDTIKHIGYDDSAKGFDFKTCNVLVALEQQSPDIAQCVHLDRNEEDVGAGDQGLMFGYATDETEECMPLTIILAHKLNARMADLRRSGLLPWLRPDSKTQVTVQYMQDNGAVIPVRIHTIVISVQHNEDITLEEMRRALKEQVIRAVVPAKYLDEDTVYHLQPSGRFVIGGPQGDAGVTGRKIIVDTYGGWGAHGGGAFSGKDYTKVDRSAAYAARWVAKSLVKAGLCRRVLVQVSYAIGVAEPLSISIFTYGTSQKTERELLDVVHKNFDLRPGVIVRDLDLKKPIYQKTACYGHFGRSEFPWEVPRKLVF

Compound: Nc1ncnc2c1ncn2[C@@H]1O[C@H](COP(=O)(O)OP(=O)(O)NP(=O)(O)O)[C@@H](O)[C@H]1O [adenylyl imidodiphosphate]
Test: NP40-soluble protein abundance relative to vehicle (solubility fold change) (ratio); higher = more soluble protein in presence of AMP-PNP
Method in brief: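 Each value is a fold change relative to the detergent-processed vehicle, calculated per replicate from vsn-normalised intensities. Jurkat crude lysate received eight concentrations (0.1 to 10 mM) for 10 min at room temperature and 3 min at 37 °C, then was solubilised in 0.8% NP40 with benzonase (60 min, 4 °C). The ultracentrifuged supernatant was TMT-labelled and run by LC-MS/MS in three independent experiments.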

Target	NP40-soluble protein abundance (concentration: 1mM)	NP40-soluble protein abundance (concentration: 2mM)	NP40-soluble protein abundance (concentration: 4mM)	NP40-soluble protein abundance (concentration: 6mM)	NP40-soluble protein abundance (concentration: 8mM)	NP40-soluble protein abundance (concentration: 10mM)
UniProt P61927	1.05 ± 0.042	1.11 ± 0.071	1.07 ± 0.018	1.08 ± 0.045	1.01 ± 0.091	1.18 ± 0.079
UniProt Q06124-2	0.989 ± 0.026	0.964 ± 0.011	0.9948 ± 0.0029	0.989 ± 0.033	1 ± 0.037	0.991 ± 0.034
UniProt P63092 and related entries	0.972 ± 0.058	0.922 ± 0.039	0.953 ± 0.05	0.981 ± 0.052	1 ± 0.05	0.959 ± 0.021
UniProt Q04864-2|Q04864	1.01 ± 0.023	0.974 ± 0.012	0.9971 ± 0.0093	1.01 ± 0.019	1.02 ± 0.012	1.01 ± 0.021
UniProt Q02880 and related entries	1.56 ± 0.036	1.63 ± 0.041	1.77 ± 0.12	1.88 ± 0.19	1.95 ± 0.18	2.01 ± 0.25
UniProt P62310	1.02 ± 0.04	1.02 ± 0.059	0.974 ± 0.015	0.959 ± 0.051	0.943 ± 0.042	0.927 ± 0.032
UniProt P63279	0.993 ± 0.076	1.01 ± 0.076	1.01 ± 0.1	1.04 ± 0.12	1.12 ± 0.07	1.07 ± 0.066
UniProt Q05397 and related entries	0.993 ± 0.022	1.03 ± 0.043	0.978 ± 0.011	0.963 ± 0.025	0.983 ± 0.039	0.963 ± 0.026
UniProt P62318 and related entries	1.07 ± 0.086	1.12 ± 0.12	1.19 ± 0.099	1.22 ± 0.017	1.29 ± 0.09	1.32 ± 0.056
UniProt P62314	1 ± 0.033	1.04 ± 0.051	1.05 ± 0.036	1.09 ± 0.035	1.11 ± 0.055	1.18 ± 0.12
UniProt Q04656 and related entries	1.02 ± 0.052	1.01 ± 0.032	1.01 ± 0.06	0.975 ± 0.05	0.982 ± 0.061	0.983 ± 0.025
UniProt P78563 and related entries	1.02 ± 0.043	1.02 ± 0.026	1.04 ± 0.026	1.039 ± 0.0092	1.04 ± 0.017	1.08 ± 0.029
UniProt Q07820 and related entries	0.988 ± 0.031	0.995 ± 0.047	1.01 ± 0.057	0.992 ± 0.039	1 ± 0.026	0.99 ± 0.027
UniProt P61201 and related entries	0.998 ± 0.019	0.97 ± 0.026	0.956 ± 0.055	1.03 ± 0.045	1.01 ± 0.047	0.992 ± 0.081
UniProt Q04760 and related entries	0.985 ± 0.039	1.02 ± 0.052	0.971 ± 0.02	1.02 ± 0.061	0.997 ± 0.025	0.995 ± 0.06
EXOSC10 (UniProt Q01780)	1.06 ± 0.044	1.11 ± 0.021	1.17 ± 0.066	1.24 ± 0.11	1.23 ± 0.1	1.32 ± 0.11
UniProt P56282 and related entries	0.973 ± 0.03	0.933 ± 0.065	0.968 ± 0.026	0.952 ± 0.036	0.942 ± 0.041	0.951 ± 0.045
UniProt P55769	1.07 ± 0.022	1.12 ± 0.045	1.12 ± 0.065	1.17 ± 0.014	1.29 ± 0.043	1.3 ± 0.022

Target	NP40-soluble protein abundance (concentration: 1mM)	NP40-soluble protein abundance (concentration: 2mM)	NP40-soluble protein abundance (concentration: 4mM)	NP40-soluble protein abundance (concentration: 6mM)	NP40-soluble protein abundance (concentration: 8mM)	NP40-soluble protein abundance (concentration: 10mM)
NAA20 (UniProt P61599)	0.999 ± 0.039	0.9558 ± 0.0052	0.991 ± 0.022	0.973 ± 0.01	1.026 ± 0.0096	0.9551 ± 0.001
MARS (UniProt P56192)	0.962 ± 0.073	0.934 ± 0.095	0.946 ± 0.12	0.948 ± 0.13	0.928 ± 0.11	0.907 ± 0.14
UniProt P61221	0.886 ± 0.032	0.803 ± 0.058	0.8639 ± 0.0073	0.896 ± 0.03	0.931 ± 0.011	0.903 ± 0.016
UniProt P62995 and related entries	1.02 ± 0.096	1.04 ± 0.038	1.02 ± 0.11	0.993 ± 0.12	0.95 ± 0.088	1.01 ± 0.18
UniProt P62714	1.03 ± 0.015	0.997 ± 0.023	0.975 ± 0.018	0.943 ± 0.035	0.96 ± 0.043	0.967 ± 0.049
UniProt P61254	0.992 ± 0.12	0.988 ± 0.11	0.965 ± 0.1	0.937 ± 0.082	0.954 ± 0.12	1.03 ± 0.21
UniProt P61970	0.9917 ± 0.0085	0.956 ± 0.021	0.96 ± 0.025	0.993 ± 0.034	0.996 ± 0.046	0.946 ± 0.046
UniProt Q01518 and related entries	1.02 ± 0.018	1.02 ± 0.078	1.02 ± 0.036	1.06 ± 0.03	1.07 ± 0.034	1.06 ± 0.038
UniProt P78406 and related entries	1.03 ± 0.047	1.02 ± 0.011	1.06 ± 0.039	1.12 ± 0.017	1.16 ± 0.0096	1.2 ± 0.018
RAB8A (UniProt P61006)	1 ± 0.029	0.98 ± 0.04	0.977 ± 0.071	0.952 ± 0.016	0.947 ± 0.017	0.951 ± 0.05
RPS3A (UniProt P61247)	0.96 ± 0.052	0.931 ± 0.044	0.918 ± 0.11	0.895 ± 0.081	0.83 ± 0.057	0.947 ± 0.11
RPL6 (UniProt Q02878)	0.998 ± 0.12	0.948 ± 0.071	0.895 ± 0.12	0.854 ± 0.12	0.794 ± 0.13	0.874 ± 0.2
UniProt P62854	1 ± 0.035	0.978 ± 0.04	1 ± 0.038	0.949 ± 0.038	0.944 ± 0.012	0.9902 ± 0.0089
UniProt P57081 and related entries	0.93 ± 0.01	0.899 ± 0.056	0.9607 ± 0.0045	0.9953 ± 0.0047	0.977 ± 0.025	0.976 ± 0.017
UniProt Q02447-3|H0Y6K5 and related entries	1.02 ± 0.051	1.03 ± 0.072	1.02 ± 0.079	1.03 ± 0.067	1.02 ± 0.079	0.993 ± 0.1
UniProt P56270-2	1.05 ± 0.047	1.09 ± 0.068	1.05 ± 0.097	1.06 ± 0.048	1.1 ± 0.057	1.11 ± 0.08
UniProt Q00266 and related entries	1.04 ± 0.071	0.993 ± 0.026	1 ± 0.029	0.978 ± 0.024	0.994 ± 0.039	0.946 ± 0.032

Fetched one by one from the entries so far, 2 records:
Target	NP40-soluble protein abundance (concentration: 1mM)	NP40-soluble protein abundance (concentration: 2mM)	NP40-soluble protein abundance (concentration: 4mM)	NP40-soluble protein abundance (concentration: 6mM)	NP40-soluble protein abundance (concentration: 8mM)	NP40-soluble protein abundance (concentration: 10mM)
UniProt Q00266 and related entries	1.04 ± 0.071	0.993 ± 0.026	1 ± 0.029	0.978 ± 0.024	0.994 ± 0.039	0.946 ± 0.032
UniProt P61970	0.9917 ± 0.0085	0.956 ± 0.021	0.96 ± 0.025	0.993 ± 0.034	0.996 ± 0.046	0.946 ± 0.046
